Measured values as given in article PMC10976826.
Results are given in words; binding and its absence hold for the method and conditions named. Binding seen in cells or lysates may run through a third protein. Some results given as binding are weak or reduced against the parent protein; the word gives no strength.

Chains of the proteins cited; added tags and fusions are not shown. Residues count along the entry.
UniProt Q9QUK6, residues 26-835: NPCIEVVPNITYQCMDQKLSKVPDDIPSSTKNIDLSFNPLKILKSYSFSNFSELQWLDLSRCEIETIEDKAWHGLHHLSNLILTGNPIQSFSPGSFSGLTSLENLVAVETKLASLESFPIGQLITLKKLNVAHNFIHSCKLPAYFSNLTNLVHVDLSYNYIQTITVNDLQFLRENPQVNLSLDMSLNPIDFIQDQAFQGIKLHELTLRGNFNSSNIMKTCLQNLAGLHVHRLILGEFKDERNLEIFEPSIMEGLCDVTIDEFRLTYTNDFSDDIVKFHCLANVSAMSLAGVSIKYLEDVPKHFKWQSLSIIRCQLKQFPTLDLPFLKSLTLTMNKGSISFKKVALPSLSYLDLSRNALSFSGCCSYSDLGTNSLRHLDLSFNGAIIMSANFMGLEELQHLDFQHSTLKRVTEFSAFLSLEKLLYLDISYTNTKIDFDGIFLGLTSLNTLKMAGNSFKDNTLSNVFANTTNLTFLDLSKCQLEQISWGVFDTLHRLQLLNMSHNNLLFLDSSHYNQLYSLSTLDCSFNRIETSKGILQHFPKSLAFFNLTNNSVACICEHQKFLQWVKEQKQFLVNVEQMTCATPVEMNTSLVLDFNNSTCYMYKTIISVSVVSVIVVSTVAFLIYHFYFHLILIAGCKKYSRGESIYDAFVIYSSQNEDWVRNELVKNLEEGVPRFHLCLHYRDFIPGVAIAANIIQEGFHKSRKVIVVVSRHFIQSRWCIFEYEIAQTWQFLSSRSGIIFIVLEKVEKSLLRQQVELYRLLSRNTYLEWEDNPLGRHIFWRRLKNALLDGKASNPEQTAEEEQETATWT

Molecular target: toll-like receptor 4 (TLR4) (mouse (endogenous in BMDMs)) (UniProt Q9QUK6)
Test: co-IP; BMDM lysate (IP lysis buffer, 500 ug protein) with 1 ug anti-TLR4 antibody overnight at 4 °C, protein A/G magnetic beads, blot with anti-Rab5a; cells treated with LPS (1 ug/ml) with or without propofol (50 uM) pretreatment

binding: binds
B1: Rab5a (protein, UniProt Q9CQD1 1-215)
chain: MANRGATRPNGPNTGNKICQFKLVLLGESAVGKSSLVLRFVKGQFHEFQESTIGAAFLTQTVCLDDTTVKFEIWDTAGQERYHSLAPMYYRGAQAAIVVYDITNEESFARAKNWVKELQRQASPNIVIALSGNKADLANKRAVDFQEAQSYADDNSLLFMETSAKTSMNVNEIFMAIAKKLPKNEPQNPGANSARGRGVDLTEPAQPARSQCCSN
